Data source: PubChem BioAssay AID1224828 (NIAID, 2016)
In all, the deposit lists about 17,000 reagents; shown is a random part of them. In the full data, 762 (4.5%) are marked active. 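Active calls include both raised and lowered p65 entry, mostly lowered; wells with fewer than 50 cells lack a z-score.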 Raw values vary from plate to plate and are shown uncorrected. Unmarked entries are inactive. No sequences are given here.

- Test: 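Knock-downs that increase or decrease LPS-induced p65 nuclear translocation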 (primary screen)
- System: mouse RAW264.7 G9 macrophage reporter cells (GFP-p65, Tnf promoter-mCherry)
- Reagents: siRNA pool against mouse genes, 100 nM
- Time to read-out: 2 days siRNA transfection, then 40 min LPS before fixation
- Challenge: LPS (Salmonella minnesota R595) at 10 ng/ml
- Read-out: 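Microscopy ratio of nuclear to perinuclear-ring GFP-p65 signal, scaled to the plate median; gene score is the average of two replicate robust z-scores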
- Scale: p65 translocation robust z-score: higher = more nuclear NF-kappaB p65 after LPS than the plate median; nuclear/cytoplasmic p65 ratio: higher = more nuclear NF-kappaB p65
- Active means: 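Called active when z exceeds 3.3 or falls under -1.56 (median of Tlr4 controls), giving activity score of at least 50; no calls for control wells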
- Meaning of the calls: active = hit (p65 shift raised or lowered); inactive = no clear change

Speer4a1 (spermatogenesis associated glutamate (E)-rich protein 4A1)
- nuclear/cytoplasmic p65 ratio, rep 1: 1.36
- nuclear/cytoplasmic p65 ratio, rep 2: 1.17
- low cell count flag: fewer than 50 cells per well; well left out of scoring

Ankfy1 (ankyrin repeat and FYVE domain containing 1)
- p65 translocation robust z-score: -0.14
- nuclear/cytoplasmic p65 ratio, rep 1: 1.58
- nuclear/cytoplasmic p65 ratio, rep 2: 1.66
- low cell count flag: enough cells to score

Fgd6 (FYVE, RhoGEF and PH domain containing 6)
- p65 translocation robust z-score: 1.64
- nuclear/cytoplasmic p65 ratio, rep 1: 1.72
- nuclear/cytoplasmic p65 ratio, rep 2: 1.51
- low cell count flag: enough cells to score

Fam199x (family with sequence similarity 199, X-linked)
- p65 translocation robust z-score: 0.77
- nuclear/cytoplasmic p65 ratio, rep 1: 1.66
- nuclear/cytoplasmic p65 ratio, rep 2: 2.01
- low cell count flag: enough cells to score

Map7d1 (MAP7 domain containing 1)
- p65 translocation robust z-score: -1.02
- nuclear/cytoplasmic p65 ratio, rep 1: 1.36
- nuclear/cytoplasmic p65 ratio, rep 2: 1.75
- low cell count flag: enough cells to score

Card11 (caspase recruitment domain family, member 11)
- p65 translocation robust z-score: 0.3
- nuclear/cytoplasmic p65 ratio, rep 1: 1.7
- nuclear/cytoplasmic p65 ratio, rep 2: 1.76
- low cell count flag: enough cells to score

Serpini1 (serine (or cysteine) peptidase inhibitor, clade I, member 1)
- p65 translocation robust z-score: 0.33
- nuclear/cytoplasmic p65 ratio, rep 1: 1.62
- nuclear/cytoplasmic p65 ratio, rep 2: 1.58
- low cell count flag: enough cells to score

Ordered by “nuclear/cytoplasmic p65 ratio, rep 2” (highest first): some entries from above.
Card11 (caspase recruitment domain family, member 11)
- p65 translocation robust z-score: 0.3
- nuclear/cytoplasmic p65 ratio, rep 1: 1.7
- nuclear/cytoplasmic p65 ratio, rep 2: 1.76
- low cell count flag: enough cells to score

Serpini1 (serine (or cysteine) peptidase inhibitor, clade I, member 1)
- p65 translocation robust z-score: 0.33
- nuclear/cytoplasmic p65 ratio, rep 1: 1.62
- nuclear/cytoplasmic p65 ratio, rep 2: 1.58
- low cell count flag: enough cells to score

Next entries follow.
C4b (complement C4B)
- p65 translocation robust z-score: 0.56
- nuclear/cytoplasmic p65 ratio, rep 1: 1.7
- nuclear/cytoplasmic p65 ratio, rep 2: 1.7
- low cell count flag: enough cells to score

Shh (sonic hedgehog signaling molecule)
- p65 translocation robust z-score: -0.36
- nuclear/cytoplasmic p65 ratio, rep 1: 1.52
- nuclear/cytoplasmic p65 ratio, rep 2: 1.48
- low cell count flag: enough cells to score

Mul1 (mitochondrial ubiquitin ligase activator of NFKB 1)
- nuclear/cytoplasmic p65 ratio, rep 1: 1.27
- nuclear/cytoplasmic p65 ratio, rep 2: 1.28
- low cell count flag: fewer than 50 cells per well; well left out of scoring

Or5d35 (olfactory receptor family 5 subfamily D member 35)
- p65 translocation robust z-score: -2.17 (active)
- nuclear/cytoplasmic p65 ratio, rep 1: 1.37
- nuclear/cytoplasmic p65 ratio, rep 2: 1.22
- low cell count flag: enough cells to score

Cry2 (cryptochrome circadian regulator 2)
- p65 translocation robust z-score: -1.24
- nuclear/cytoplasmic p65 ratio, rep 1: 1.38
- nuclear/cytoplasmic p65 ratio, rep 2: 1.59
- low cell count flag: enough cells to score

Zc3hc1 (zinc finger, C3HC type 1)
- p65 translocation robust z-score: -1.38
- nuclear/cytoplasmic p65 ratio, rep 1: 1.5
- nuclear/cytoplasmic p65 ratio, rep 2: 1.32
- low cell count flag: enough cells to score

Lpin2 (lipin 2)
- nuclear/cytoplasmic p65 ratio, rep 1: 1.74
- nuclear/cytoplasmic p65 ratio, rep 2: 1.45
- low cell count flag: fewer than 50 cells per well; well left out of scoring
